Assay results: patent US20240109915A1, “NOVEL ACC INHIBITORS” (Pfizer Inc., priority 2022, published 2024)

Molecular target: recombinant human ACC1 (rhACC1) (Homo sapiens (Human), UniProt Q13085)
Test: Transcreener ADP detection FP assay, direct inhibition of rhACC1
Conditions: read-out: Transcreener assay rhACC1 IC50; Geomean IC50, n ≥ 2 unless * then n = 1; 50 μM ATP, 30 μM acetyl-CoA
Description: The direct inhibition of ACC1 for the compounds of the present invention was determined using preparations of recombinant human ACC1 (rhACC1) (SEQ ID NO. 1)
Two liters of SF9 cells, infected with recombinant baculovirus containing full length human ACC1 cDNA, were suspended in ice-cold lysis buffer (25 mM Tris, pH 7.5; 150 mM NaCl; 10% glycerol; 5 mM imidazole (EMD Bioscience; Gibbstown, NJ); 2 mM TCEP (BioVectra; Charlottetown, Canada); Benzonase nuclease (10000 U/100 g cell paste; Novagen; Madison, WI); EDTA-free protease inhibitor cocktail (1 tab/50 ml; Roche Diagnostics; Mannheim, Germany). Cells were lysed by 3 cycles of freeze-thaw and centrifuged at 40,000×g for 40 minutes (4° C.). Supernatant was directly loaded onto a HisTrap FF crude column (GE Healthcare; Piscataway, NJ) and eluted with an imidazole gradient up to 0.5 M over 20 column volumes (CV). […]
Measurement of rhACC1 Inhibition rhACC1 was assayed in a Corning #3820 (Corning, Tewksbury, MA) 384-well plate using the Transcreener ADP detection FP assay kit (Bellbrook Labs, Madison, Wisconsin) using the manufacturer's recommended conditions for a 50 μM ATP reaction. […] The data was acquired on an Envision Fluorescence reader (PerkinElmer) using a 620 excitation Cy5 FP general dual mirror, 620 excitation Cy5 FP filter, 688 emission (S) and a 688 (P) emission filter.

IC50: 23.3 nM
Compound: Cc1n[nH]c2c(Cl)cc(C(=O)N3CCC4(CC3)CC(=O)c3nc(C(C)(C)C)sc3C4)cc12

Structures were worked out from names or drawings and are uncertain.
